From the supplement of paper PMC4604168 (melanoma cell lines) come the findings set out here.

Each structure is given as a SMILES string. This is one part of the list. Many values rest on one well or one pass, so single values are uncertain.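 The apoptosis fraction was the count of cleaved-PARP antibody-stained nuclei relative to all DNA-stained nuclei, imaged in 1,536-well plates. Screening doses were set so most cells survived, and baseline and induced cleaved-PARP levels vary greatly across cell lines.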

The test system of the assay is WM115. As to the kind of experiment: cleaved PARP positive nuclei fraction relative to DMSO control; melanoma cells; higher = more apoptosis. The conditions noted are these: library dose: low library concentration; 72 h.
Regarding `NC1(c2ccc(-c3nc4ccn5c(=O)[nH]nc5c4cc3-c3ccccc3)cc2)CCC1` + Cn1cc(/C=C2\C(=O)Nc3cccnc32)c2ccccc21 [GW441756] (first compound 0.4 µM, partner dose 0.4 µM), the “cleaved PARP positive nuclei fraction” value was 364%.
The same measure for `CN(c1ncccc1CNc1nc(Nc2ccc3c(c2)CC(=O)N3)ncc1C(F)(F)F)S(C)(=O)=O` + CCN(CC)CCCCNc1ncc2cc(-c3cc(OC)cc(OC)c3)c(NC(=O)NC(C)(C)C)nc2n1 [PD173074] (first compound 0.08 µM, partner dose 0.1 µM): 128%; for `CC1(C)CCC(c2ccc(Cl)cc2)=C(CN2CCN(c3ccc(C(=O)NS(=O)(=O)c4ccc(N[C@H](CCN5CCOCC5)CSc5ccccc5)c(S(=O)(=O)C(F)(F)F)c4)cc3)CC2)C1` + O=C(O)[C@@H]1[O][Sb](=[O])([O][Sb]2(=[O])[O][C@H]([C@H](O)CO)[C@H](O)[C@H](C(=O)O)[O]2)[O][C@H]([C@H](O)CO)[C@@H]1O [stibogluconate] (first compound 0.4 µM, partner dose 2 µM): 479%.
Consider `CS(=O)(=O)c1ccc(C(=O)Nc2ccc(Cl)c(-c3ccccn3)c2)c(Cl)c1` [vismodegib] + C#Cc1cccc(Nc2ncnc3cc(OCCOC)c(OCCOC)cc23)c1 [erlotinib] (first compound 1 µM, partner dose 0.8 µM), for which the “cleaved PARP positive nuclei fraction” value is 60.1%.
For the compound `CN(c1ncccc1CNc1nc(Nc2ccc3c(c2)CC(=O)N3)ncc1C(F)(F)F)S(C)(=O)=O` + C#Cc1cccc(Nc2ncnc3cc(OCCOC)c(OCCOC)cc23)c1 [erlotinib] (first compound 0.08 µM, partner dose 0.8 µM), the “cleaved PARP positive nuclei fraction” value amounted to 242%.
For `CC1(C)CCC(c2ccc(Cl)cc2)=C(CN2CCN(c3ccc(C(=O)NS(=O)(=O)c4ccc(N[C@H](CCN5CCOCC5)CSc5ccccc5)c(S(=O)(=O)C(F)(F)F)c4)cc3)CC2)C1` + O=C(O)c1ccc2c(c1)nc(Nc1cccc(Cl)c1)c1ccncc12 [CX4945] (first compound 0.4 µM, partner dose 0.4 µM), the “cleaved PARP positive nuclei fraction” value is 711%.
`COc1ccc(C2=N[C@@H](c3ccc(Cl)cc3)[C@@H](c3ccc(Cl)cc3)N2C(=O)N2CCNC(=O)C2)c(OC(C)C)c1` [Nutlin-3] + COc1cc2c(Oc3ccc4[nH]c(C)cc4c3F)ncnc2cc1OCCCN1CCCC1 [cediranib] (first compound 0.1 µM, partner dose 0.4 µM): the “cleaved PARP positive nuclei fraction” value was determined as 66.2%.
`CC(=O)O[C@@]12CO[C@@H]1C[C@H](O)[C@@]1(C)C(=O)[C@H](O)C3=C(C)[C@@H](OC(=O)[C@H](O)[C@@H](NC(=O)OC(C)(C)C)c4ccccc4)C[C@@](O)([C@@H](OC(=O)c4ccccc4)[C@H]21)C3(C)C` [Docetaxel] + Cn1c(Nc2ccc(C(F)(F)F)cc2)nc2cc(Oc3ccnc(-c4ncc(C(F)(F)F)[nH]4)c3)ccc21 [CHIR265] (first compound 0.0001 µM, partner dose 0.08 µM): the “cleaved PARP positive nuclei fraction” value was 2050%.
As for `CS(=O)(=O)c1ccc(C(=O)Nc2ccc(Cl)c(-c3ccccn3)c2)c(Cl)c1` [vismodegib] + Nc1ccn([C@@H]2O[C@H](CO)[C@@H](O)C2(F)F)c(=O)n1 [gemcitabine] (first compound 1 µM, partner dose 0.0004 µM), the “cleaved PARP positive nuclei fraction” value stood at 73.6%.
Take `CCCCCCCCc1ccc(CCC(N)(CO)CO)cc1` [fingolimod] + CCN(CC)CCCCNc1ncc2cc(-c3cc(OC)cc(OC)c3)c(NC(=O)NC(C)(C)C)nc2n1 [PD173074] (first compound 2 µM, partner dose 0.1 µM): the “cleaved PARP positive nuclei fraction” value is 191%.
For `COc1ccc(C2=N[C@@H](c3ccc(Cl)cc3)[C@@H](c3ccc(Cl)cc3)N2C(=O)N2CCNC(=O)C2)c(OC(C)C)c1` [Nutlin-3] + Nc1nc(F)nc2c1ncn2[C@@H]1O[C@H](CO)[C@@H](O)[C@@H]1O [fludarabine] (first compound 0.1 µM, partner dose 0.2 µM) the value was 178%; for `NC(=O)c1ccc(N(C(N)=O)c2c(F)cccc2F)nc1-c1ccc(F)cc1F` + CS(=O)(=O)CCNCc1ccc(-c2ccc3ncnc(Nc4ccc(OCc5cccc(F)c5)c(Cl)c4)c3c2)o1 [lapatinib] (first compound 0.4 µM, partner dose 0.8 µM), 56.9%.
